Results deposited as PubChem BioAssay AID720505 (Drosophila RNAi Screening Center, 2013)
Screen: 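Knock-downs that reduce calcium influx once internal stores are emptied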 (primary screen). System: Drosophila S2R+ cells. Knock-down reagent: long dsRNA against Drosophila genes. Conditions: thapsigargin (2 µM) in calcium-free buffer to empty internal stores, then 2 mM calcium added back. Measurement: 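Stores emptied by 2 µM thapsigargin without calcium, then 2 mM calcium re-added; fluo-4 fluorescence followed by FLIPR in 384-well plates, per-well averaged endpoint, raw; two screen passes, some wells retested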. Scale: calcium signal: higher = more calcium entry after store depletion. Hit rule: 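About 1500 genes called as lowering calcium entry, by varying amounts, judged against per-plate control wells with STIM1 as positive and Rho1 as negative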. Meaning of the calls: active = called as lowering calcium entry; inactive = not called.
In all, the deposit lists about 20,000 reagents; below is a random part of those with a known target gene and a result. Of all reagents, about 2,100 (10%) got an active call. 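Raw plate signals without normalisation; calls rest on control-based scores that were not deposited; replicate 2 separates called from uncalled poorly.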 Entries without a mark were called inactive. The numbers tell different reagents against one gene apart. Names joined by + are all predicted targets of the reagent. The record does not give: the amount of reagent, the time to read-out.

After knock-down of sti (GeneID 39429) #1, the record shows calcium signal, replicate 1 = 71.4; calcium signal, replicate 2 = 75.6.
Against sti (GeneID 39429) #2, the entry reads calcium signal, replicate 1 = 80.9; calcium signal, replicate 2 = 104.
After knock-down of eIF2A (GeneID 40431) the results were calcium signal, replicate 1 = 113; calcium signal, replicate 2 = 96.2.
After knock-down of lncRNA:CR32658 (GeneID 3772624), the record shows calcium signal, replicate 1 = 107; calcium signal, replicate 2 = 93.9.
Knock-down of Pcyt2 (GeneID 38180) resulted in: calcium signal, replicate 1 = 133; calcium signal, replicate 2 = 122.
For psidin (GeneID 42389), the entry reads calcium signal, replicate 1 = 136; calcium signal, replicate 2 = 82.3.
With knock-down of QC (GeneID 38663), the record shows calcium signal, replicate 1 = 102; calcium signal, replicate 2 = 113.
Against CG17754 (GeneID 31873), the values are calcium signal, replicate 1 = 75 (active); calcium signal, replicate 2 = 105.
Depletion of CG14711 + Zaf1 gave: calcium signal, replicate 1 = 175; calcium signal, replicate 2 = 140.
Stim (GeneID 32556) showed calcium signal, replicate 1 = 60.9 (active); calcium signal, replicate 2 = 52.4.
With knock-down of Rhp (GeneID 32531), the screen gave calcium signal, replicate 1 = 100; calcium signal, replicate 2 = 109.
Knock-down of Isha (GeneID 37411) came out at: calcium signal, replicate 1 = 145; calcium signal, replicate 2 = 102.
Knock-down of sob (GeneID 33581) came out at: calcium signal, replicate 1 = 185; calcium signal, replicate 2 = 94.2.
With knock-down of Obp57a (GeneID 246670), the screen gave calcium signal, replicate 1 = 93; calcium signal, replicate 2 = 216.
pug (GeneID 41279) gave calcium signal, replicate 1 = 171; calcium signal, replicate 2 = 115.
Against O-fut2 (GeneID 31098) the deposit lists calcium signal, replicate 1 = 62 (active); calcium signal, replicate 2 = 89.2.
Depletion of Atg4b (GeneID 41868) gave: calcium signal, replicate 1 = 87.5; calcium signal, replicate 2 = 92.2.
CG6701 (GeneID 36550) scored calcium signal, replicate 1 = 138; calcium signal, replicate 2 = 168.
Depletion of elfless (GeneID 35076) resulted in: calcium signal, replicate 1 = 92.9; calcium signal, replicate 2 = 111.

2 of these entries in another layout:
{"gene":"QC (GeneID 38663)","reagent":1,"calcium signal, replicate 1":102,"calcium signal, replicate 2":113}
{"gene":"CG17754 (GeneID 31873)","reagent":1,"calcium signal, replicate 1":"75 (active)","calcium signal, replicate 2":105}
